In US20130065830A1:
No constants are given. Whether binding was seen depends on the method and setting. In cells and extracts the contact can be indirect. Some binding calls cover weakened binding; strength is not graded here.

By UniProt entry, the sequences of proteins in these tests, tags left out.
UniProt P04797: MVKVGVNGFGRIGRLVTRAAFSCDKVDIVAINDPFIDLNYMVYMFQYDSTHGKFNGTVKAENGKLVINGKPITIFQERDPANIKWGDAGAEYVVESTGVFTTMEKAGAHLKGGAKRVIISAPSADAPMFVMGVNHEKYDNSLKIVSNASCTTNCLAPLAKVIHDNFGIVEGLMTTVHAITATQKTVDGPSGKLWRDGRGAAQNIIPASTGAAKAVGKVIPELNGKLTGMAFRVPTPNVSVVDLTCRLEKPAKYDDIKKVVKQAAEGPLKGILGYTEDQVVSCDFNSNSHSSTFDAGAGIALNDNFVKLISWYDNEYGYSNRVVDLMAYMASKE

Biological target: glyceraldehyde-3-phosphate dehydrogenase (GAPDH) from Fischer 344 rat substantia nigra homogenate (rat (Fischer 344)) (UniProt P04797)
Assay: pull-down from rat substantia nigra fractions, 2D-PAGE, MALDI-TOF MS

PPEAPAEDRSL (N-terminal biotin; C-terminal amide) [biotinylated DNSP-11]
binding: binds
